US20040044281A1, “Systems and methods for assessing blood flow in a target tissue” (priority 2002, published 2004)
At least one structure is not confirmed: it was looked up by name or label, or the drawing left a doubt.

Tested on: tumor blood flow
Assay: DCE-MRI tumor blood flow estimation pre- and post-treatment in patients of a phase I trial
Format: in vivo, human
Settings: patient cohort
Method: The above equation (4) for Srel can be solved for the concentration variable C if the baseline set of MR image data set is set equal to Sbaseline, and the post MR sets of image data is set equal to the variable Spostcontrast. Concentration C can be calculated on a pixel by pixel or voxel by voxel basis and then averaged resulting in a data set of Concentration C as a function of time. A shown in Block 50 of FIG. 1, the mathematical derivative of Concentration C is determined, preferably by fitting a curve through the concentration data set and then taking the derivative of the curve equation to acquire a gradient curve. The gradient curve represents the rate of change of the tissue concentration of the contrast agent in the ROI. As shown in block 60 of FIG. 1, the maximum value of the rate of change of concentration per time (dC/dt) or Gpeak, is then determined. Thus, Gpeak, which is the magnitude of the first derivative of the concentration curve, can be employed as a flow analog that maintains a high correlation with flow with minimal sensitivity to variations in volume Ve. MRI acquisition techniques, coupled with image analysis techniques (e.g., intensity, rate of change of intensity), facilitate determining the efficacy of a treatment.
With A=40 mMol·sec (the area under curve without recirculation), B=0.5 mMol (the equilibrium concentration), and tp was the time to peak. […] In each case flow F was varied from 0.001 to 0.03 ml/sec/g. Five parameters were calculated from each curve as shown for example purposes in FIG. 5. Magnitude of the first derivative peak (Gpeak), time from bolus arrival to first derivative peak (tgp,) time for gradient to drop to 10% of peak value (tgp10,), the concentration at tgp10 (denoted CE), and initial area under the CT curve from bolus arrival to 60 sec afterwards (IAUC) (Evelhoch, 1999.
DCE-MRI. Six patients were studied using a 1.5T scanner (Siemens Magnetom Vision). Perfusion studies were obtained with a single-slice Fast Low Angle Shot (FLASH) sequence (TR=10, TE=4, FA=30°, slice thickness=10 mm, matrix=128×256, FOV=16×25 cm-35×35 cm) repeated 128 times, once every 2.6 seconds. The first 10 images were obtained without contrast enhancement, after which an approximately 10 second bolus of Gadolinium-DTPA contrast agent (Magnevist, Berlex Laboratories) was administered intravenously. […] DCE-MRI was performed twice on each patient; once to obtain a pre-treatment baseline, and once 4-6 hrs after infusion of combretestatin. The slice position and orientation between days within each patient was carefully matched to obtain data from the same region of interest (ROI) in the tumor. […]

SMILES: COc1ccc(/C=C\c2cc(OC)c(OC)c(OC)c2)cc1OP(=O)(O)O [CA4P, disodium combretastatin-A-4-3-O-phosphate]
- tgp10, pre- vs post-treatment scans: not statistically different
- Time to gradient peak tgp, pre- vs post-treatment (Wilcoxon Z=0.730, p=0.47): not statistically significantly different
- Gradient peak (Gpeak) after treatment (Wilcoxon Z=2.20, p=0.028): statistically significantly reduced
- Enhancement E after treatment (Z=-2.20, p=0.028): statistically significantly reduced
